Measured values published in PMC9170038.
pKd: −log10 of the molar value. Protein sequences can lack the tags named with them.

Target: T1, MS2 coat protein, dlFG mutant del68-81insG (Escherichia phage MS2) (UniProt P03612)
T1 sequence (looked up, limits assumed): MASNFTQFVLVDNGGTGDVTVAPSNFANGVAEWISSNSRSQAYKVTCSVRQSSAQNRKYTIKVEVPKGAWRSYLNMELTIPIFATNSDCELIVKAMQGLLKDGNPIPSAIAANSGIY
Experiment: binding assay
Settings: 4 mM Mg2+, RNA-MaP array, 100 mM Tris-HCl pH 7.5, 80 mM KCl, 4 mM MgCl2, 0.1 mg/mL BSA, 1 mM DTT, 0.01 mg/mL yeast tRNA, 0.01% Tween-20, protein 1.5 nM to 3 uM, 37 C (Table S3), purified recombinant protein

Sequence	pKd (no ligand)	pKd (FMN 200 uM)
AAUGUGUGUCGAGGAUAUAUAACAUGACAACAAACACAUACAUGAGGAUCACCCAUGUCCCAUGUAUAGAAGGCGAUGUGUGUG [Eterna 6134751 (Same State NG 2)]	< 5.52	
CUAUCGAGGUAACUCGCUAUCACACCAGAAGGGACGGAGGCACAUGAGGAUCACCCAUGUCCUAGUCAGGAUAUGGGUGAGUAG [Eterna 6439008 (Inverted Small Loop Same State NG 3)]	< 5.52	
GAGCGCGUGGACUGGCGUGCUCCGCUCCGUCGAGGACCGGUACGGCCGCCACUCGACAUGAGGAUCACCCAUGUGUGCGCUCGCG [Eterna 7732704 (Exclusion - Tryptophan A)]	< 5.52	
UCAUAACAUGAGGAUCACCCAUGUCAGGAUAUGAUACUAUGUACUUCGGUACAUAGUAUCAGAAGGGACAUGCU [Eterna 9252 (Exclusion 1)]		< 5.52
UGAGCGACCACAGGAUAUACUUGAGAAGACCGAGUAGAAGGGUGGAAGAGCAUGCAGUGACAUGAGGAUCACCCAUGUGGUUGG [Eterna 6428796 (Same State NG 1)]	< 5.52	
